These are yes or no findings as the source states them, for the method shown. Binding calls can cover weak binding; strength is not graded here.
Biological target: HOP1, Bombyx mori (Bombyx mori)
Assay: two-hybrid; Gal4 system, pGBDU-C1 (binding domain) and pGAD-C1 (activation domain) in PJ69-4A strains, mated diploids spotted in 10-fold serial dilutions on SD-LEU-URA and SD-HIS, 3-5 days at 30°C

PCH2, Bombyx mori (from UniProt Q1HQ67)
binding: binds
